US20230381316A1
Residue numbers refer to the chain shown, from its start. These are yes or no findings as the source states them, for the method shown. Some entries that bind do so weakly or less than the wild type. Values belong to the binder of their own block, whether it stands above or below them.

Protein sequences, listed by entry. Tags and fused reporters are not part of them. Lines headed by an entry give the natural chain unless they say otherwise; changes in a name come on top.
UniProt Q04609: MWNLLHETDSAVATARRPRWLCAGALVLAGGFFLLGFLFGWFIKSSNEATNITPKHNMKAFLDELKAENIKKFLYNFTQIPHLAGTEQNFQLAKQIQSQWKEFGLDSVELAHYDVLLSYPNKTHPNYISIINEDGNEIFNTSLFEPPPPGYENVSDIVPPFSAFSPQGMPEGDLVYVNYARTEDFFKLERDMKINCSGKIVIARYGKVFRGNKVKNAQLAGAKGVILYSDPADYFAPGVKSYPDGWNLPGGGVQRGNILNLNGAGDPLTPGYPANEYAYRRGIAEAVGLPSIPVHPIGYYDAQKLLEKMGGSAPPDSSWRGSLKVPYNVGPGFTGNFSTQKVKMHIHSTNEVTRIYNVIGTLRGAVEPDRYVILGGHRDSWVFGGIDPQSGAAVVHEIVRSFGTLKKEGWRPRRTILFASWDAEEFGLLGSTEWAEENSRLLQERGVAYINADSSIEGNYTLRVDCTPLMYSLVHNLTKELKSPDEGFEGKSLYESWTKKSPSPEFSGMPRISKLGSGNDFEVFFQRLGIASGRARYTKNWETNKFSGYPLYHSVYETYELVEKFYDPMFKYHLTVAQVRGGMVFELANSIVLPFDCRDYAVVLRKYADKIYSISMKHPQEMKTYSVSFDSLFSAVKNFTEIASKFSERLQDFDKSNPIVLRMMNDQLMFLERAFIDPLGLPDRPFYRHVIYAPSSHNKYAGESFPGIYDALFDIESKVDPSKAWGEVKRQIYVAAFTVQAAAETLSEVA

Target: purified recombinant human PSMA protein (PSMA extracellular domain, baculovirus-insect cell expression) (human) (UniProt Q04609)
Experiment: Biacore SPR

B1: anti-PSMA mouse monoclonal antibody #219 (antibody, V domains shown)
VH: VQLQQSGPELEKPGASVKMSCKASGYSFTGYNVNWVRQNNGKSLEWIGNIDPLHGGTTYNQKFKAKATLTVDRSSSTAYLQLKNLTSEDSAVYYCARSSRFDYWGQGTTLTVSS
VL: DIVMTQSHKFMSTSVGDRVNITCKASQDVGTAVAWYQQKPGQSPKLLIYWASTRHTGVPDRFTGSGSGTDFTLTISNVQSEDLADYFCHQFTSYPFTFGSGTSLEMKR
binding: binds

B2: anti-PSMA mouse monoclonal antibody #1352 (antibody, IgG2b, V domains shown)
VH: B1 VH with Q2K, M19I, R37K, N39S, L53Y, K64E, R73K, L80M, N84S
VL: B1 VL with L46F, F91Y, S103K
binding: binds

B4: anti-PSMA mouse monoclonal antibody #1207 (antibody, V domains shown)
VH: VKLQQSGPGLVKPSQSLSLTCAVTGYSITSDYAWNWIRKFPGNKLEWMGYISYSGRTTYNPSLESRISITRDTSKNQFFLQLNSVTTEDTATYYCARCYYGSSSRWYGMDYWGRGTSVAVSS
VL: IVLTQSPAIMSASPGVKVTMTCRASSSVDSSYLHWYQQKSGASPQVWIYSTSNLASGVPARFSGSGSGTSYSLTISSVEAEDAATYYCQQYSGYPLTFGGGTKLEIKR
binding: binds

Other lines, results leading:

binding: binds
B3: anti-PSMA mouse monoclonal antibody #1366 (antibody, V domains shown)
VH: VKLQESGPGLVAPSQSLSITCTVSGFSLTDYGVSWIRQPPGKGLEWLGVIWSDGNTYYNSPLKSRLSINKDNSKSQVFLKMNSLQTDDSAMYYCARHKVYTMDYWGQGTSVTVSS
VL: B4 VL with I1T, V16E, D29S, G41S, Q45K, V46L, S50R, V78L, G100A, I106L

binding: binds
B5: anti-PSMA mouse monoclonal antibody #1377 (antibody, V domains shown)
VH: VQLQQPGAALVRPGASVRLSCKASGYSFTYYWMNWVMQRPGQGLEWIGMIHPSDSETRLSQKFRDKATLTVDKSSSTVYMQLNSPTSDDSAVYYCARDGNFPYYALDYWGQGTSVTVSS
VL: DVVLTQAPLSLPVSLGDQASISCRSSQSLEYSNGNTYLHWYLQKPGQSPELLIYTVSNRFSGVPDRFSGSGSGTDFTLKIHRVEAEDLGVYFCSQSTHVPTFGGGTKLEIKR
